{"source": "PubChem BioAssay AID1259425, University of Nebraska Medical Center, 2018", "assay": "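Find knockdowns that reproduce the gene expression pattern seen when KSR1 is lost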 (primary screen)", "cell system": "HCT116 human colon cancer cells", "reagents": "siRNA pool against human genes, 50 nM siRNA", "detection": "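mRNA of six signature genes measured together by branched-DNA assay after 50 nM siRNA pool, blank removed, divided by geometric mean of two housekeeping genes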", "scale": "BNIP3L mRNA: higher = more BNIP3L transcript after knockdown", "note": "This is a random part of about 14,000 deposited reagents. Further read-outs or replicates are left out here. The record does not give: the time to read-out."}
{"Gene": "CCNL1", "PubChem SID": "SID364001597", "BNIP3L mRNA, set 1": 0.228}
{"Gene": "AASS", "PubChem SID": "SID363996644", "BNIP3L mRNA, set 1": 0.187}
{"Gene": "ANKRD20A1", "PubChem SID": "SID364003849", "BNIP3L mRNA, set 1": 0.227}
{"Gene": "RHOA", "PubChem SID": "SID363992888", "BNIP3L mRNA, set 1": 0.147}
{"Gene": "KIF7", "PubChem SID": "SID364005320", "BNIP3L mRNA, set 1": 0.134}
{"Gene": "GPATCH2L", "PubChem SID": "SID364000651", "BNIP3L mRNA, set 1": 0.117}
{"Gene": "FCRL4", "PubChem SID": "SID364003571", "BNIP3L mRNA, set 1": 0.0751}
{"Gene": "UBE2J2", "PubChem SID": "SID364004460", "BNIP3L mRNA, set 1": 0.0667}
{"Gene": "FZD1", "PubChem SID": "SID363994601", "BNIP3L mRNA, set 1": 0.146}
{"Gene": "RHOXF2", "PubChem SID": "SID364004014", "BNIP3L mRNA, set 1": 0.435}
{"Gene": "GRIN2B", "PubChem SID": "SID363992122", "BNIP3L mRNA, set 1": 0.0659}
{"Gene": "RTN2", "PubChem SID": "SID363996513", "BNIP3L mRNA, set 1": 0.0705}
{"Gene": "DPY19L1", "PubChem SID": "SID364005476", "BNIP3L mRNA, set 1": 0.0906}
{"Gene": "KCNF1", "PubChem SID": "SID363993436", "BNIP3L mRNA, set 1": 0.142}
{"Gene": "PCDH20", "PubChem SID": "SID364002586", "BNIP3L mRNA, set 1": 0.166}
{"Gene": "SMN1", "PubChem SID": "SID363991676", "BNIP3L mRNA, set 1": 0.0529}
{"Gene": "TRAFD1", "PubChem SID": "SID363997480", "BNIP3L mRNA, set 1": 0.053}
{"Gene": "FGF12", "PubChem SID": "SID363995123", "BNIP3L mRNA, set 1": 0.223}
{"Gene": "TEKT2", "PubChem SID": "SID363998878", "BNIP3L mRNA, set 1": 0.13}
{"Gene": "AFAP1", "PubChem SID": "SID364002161", "BNIP3L mRNA, set 1": 0.153}
{"Gene": "GFOD3P", "PubChem SID": "SID364005014", "BNIP3L mRNA, set 1": 0.147}
{"Gene": "DUSP10", "PubChem SID": "SID363997903", "BNIP3L mRNA, set 1": 0.0882}
{"Gene": "MAPK7", "PubChem SID": "SID363993907", "BNIP3L mRNA, set 1": 0.215}
{"Gene": "TNFSF12", "PubChem SID": "SID364004755", "BNIP3L mRNA, set 1": 0.136}
{"Gene": "RPP21", "PubChem SID": "SID364003103", "BNIP3L mRNA, set 1": 0.196}
{"Gene": "FAM53B", "PubChem SID": "SID363999016", "BNIP3L mRNA, set 1": 0.0821}
{"Gene": "TIPE2", "PubChem SID": "SID364002881", "BNIP3L mRNA, set 1": 0.193}
{"Gene": "SLC15A1", "PubChem SID": "SID363996010", "BNIP3L mRNA, set 1": 0.105}

2 neighbouring entries already listed, quoted:
{"Gene": "DPY19L1", "PubChem SID": "SID364005476", "BNIP3L mRNA, set 1": 0.0906}
{"Gene": "KCNF1", "PubChem SID": "SID363993436", "BNIP3L mRNA, set 1": 0.142}
